No constants are given. Whether binding was seen depends on the method and setting. Binding seen in cells or lysates may run through a third protein.

The target in the assay is T1, SAX-3 (C. elegans) (UniProt G5EBF1).
T1 sequence: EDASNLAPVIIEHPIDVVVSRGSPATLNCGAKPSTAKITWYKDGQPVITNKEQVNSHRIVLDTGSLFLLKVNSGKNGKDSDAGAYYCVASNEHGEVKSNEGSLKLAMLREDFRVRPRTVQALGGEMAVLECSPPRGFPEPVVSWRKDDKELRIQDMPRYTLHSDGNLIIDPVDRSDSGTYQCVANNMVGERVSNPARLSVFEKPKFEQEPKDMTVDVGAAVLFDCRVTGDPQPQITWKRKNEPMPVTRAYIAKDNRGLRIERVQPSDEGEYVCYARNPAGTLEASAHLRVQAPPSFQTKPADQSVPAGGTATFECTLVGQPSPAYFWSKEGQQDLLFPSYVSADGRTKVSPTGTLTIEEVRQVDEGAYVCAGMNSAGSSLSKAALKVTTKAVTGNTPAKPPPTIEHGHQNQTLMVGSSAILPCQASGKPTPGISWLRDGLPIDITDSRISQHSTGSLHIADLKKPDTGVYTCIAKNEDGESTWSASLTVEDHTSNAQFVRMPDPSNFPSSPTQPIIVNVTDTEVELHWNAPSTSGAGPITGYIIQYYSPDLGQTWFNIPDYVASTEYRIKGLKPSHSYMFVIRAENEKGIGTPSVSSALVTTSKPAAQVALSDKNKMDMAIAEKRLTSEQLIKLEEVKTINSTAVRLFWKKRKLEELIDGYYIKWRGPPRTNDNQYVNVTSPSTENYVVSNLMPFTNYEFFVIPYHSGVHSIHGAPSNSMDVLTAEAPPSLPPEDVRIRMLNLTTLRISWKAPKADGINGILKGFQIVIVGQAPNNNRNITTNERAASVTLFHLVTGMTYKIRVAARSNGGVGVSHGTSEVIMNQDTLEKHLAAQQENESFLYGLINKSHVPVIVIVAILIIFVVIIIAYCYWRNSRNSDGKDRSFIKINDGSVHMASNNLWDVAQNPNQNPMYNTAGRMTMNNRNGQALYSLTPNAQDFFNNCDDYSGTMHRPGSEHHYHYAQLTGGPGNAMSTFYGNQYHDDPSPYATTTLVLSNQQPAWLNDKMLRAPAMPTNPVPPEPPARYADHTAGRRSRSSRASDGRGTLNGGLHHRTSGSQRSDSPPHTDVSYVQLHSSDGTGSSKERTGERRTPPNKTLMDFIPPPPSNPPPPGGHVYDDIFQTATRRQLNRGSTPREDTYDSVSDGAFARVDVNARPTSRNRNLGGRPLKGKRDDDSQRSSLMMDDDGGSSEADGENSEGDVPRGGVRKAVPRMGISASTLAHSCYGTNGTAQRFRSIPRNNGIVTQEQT
Briefly: co-IP; CoIP assay; no format, conditions or source of the proteins told.

B1: UNC-51 (protein, UniProt Q23023 1-856)
chain: MEQFDGFEYSKRDLLGHGAFAIVYRGRYVDRTDVPVAIKAIAKKNISKSKNLLTKEIKILKELSSLKHENLVGLLKCTETPTHVYLVMEFCNGGDLADYLQQKTTLNEDTIQHFVVQIAHALEAINKKGIVHRDLKPQNILLCNNSRTQNPHFTDIVIKLADFGFARFLNDGVMAATLCGSPMYMAPEVIMSMQYDAKADLWSIGTILFQCLTGKAPFVAQTPPQLKAYYEKTRELRPNIPEWCSPNLRDLLLRLLKRNAKDRISFEDFFNHPFLTSPLLPSPSKRILESARSPLLANRRIITPQSSLPVPKRAGSTKLDSPTPVRRIGESPRVQRRVITPGMPSPVPGAPMQESTDFTFLPPRQESSPVKQVQVHTNVSPSLTTCKPVPVPSQRLTYQKMEERLAAARKTAVPSSSSPTGSAVSAQHQHQHQQQQEPASSPVVQRIERPDQLPRRTTLQDPNAHDIERMTMPNPTFVVCGSSTKPSPNNANRVRRSTITSPADTQDMVAADQMLSNLDPTTTTTTIPKSATTANIQGIPRGARDRSVTSPPQPTIHENEPLDNAKYQQTDVNNSPTAPTEPFIIKNQTTCSTSSTSSSVVEEEEAMSLPFASGSHLAAGFKKTPAEVPMDHGALPPALDQEIVLGEEHKQILAKLRFVAELVDTLIHVAEQKDNPLASAMASRRQLLTTGTSTTNTSSPYRRAEQLVVYVRALHMLSSALLLAQTNVANRVLHPSVAVQQVLNQLNDKYHQCLVRSQELASLGLPGQDPAMAVISAERIMYRHAIELCQAAALDELFGNPQLCSQRYQTAYMMLHTLAEQVNCDQDKTVLTRYKVAVEKRLRILERQGFVAAVNT
On to B1, for which the binding result was “no binding”.

Source of the values: PMC3680500.
